Binding signal data for 42 sequences are collected here from paper PMC7819943, “Rice protein-binding microarrays: a tool to detect cis-acting elements near promoter regions in rice”.

Amino acid sequences for entries named in this document (tags omitted).
UniProt Q0JBA9, entry or part of it: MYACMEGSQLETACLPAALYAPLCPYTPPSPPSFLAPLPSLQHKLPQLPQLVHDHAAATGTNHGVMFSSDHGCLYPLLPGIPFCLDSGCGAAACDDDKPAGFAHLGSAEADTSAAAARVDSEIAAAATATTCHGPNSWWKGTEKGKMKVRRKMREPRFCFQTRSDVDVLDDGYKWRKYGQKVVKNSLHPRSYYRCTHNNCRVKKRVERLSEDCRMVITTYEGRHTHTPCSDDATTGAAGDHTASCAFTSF

The other results are listed elsewhere or left out.

The test concerns the target OsWRKY34 (Oryza sativa, UniProt Q0JBA9 1-250). Nature of the test: protein-binding microarray (RPBM); PBS, 2% BSA, 51.3 ng/ul salmon testes DNA, 50 uM zinc acetate, 200 nM TF, 25 C, 1 h; high values mean tight binding. As to conditions: protein: recombinant; tags: N-terminal polyhistidine and DsRed monomer fusion (pET32a); label: CyDye5-dUTP incorporated in the synthesized complementary strand; 3' TTTTT single-stranded linker to array surface; dsDNA, one strand shown. The procedure, abridged: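 Binding signal is defined as the fluorescence intensity of each feature in arbitrary units, read on an Axon 4000B scanner. Transcription factors with N-terminal polyhistidine and DsRed fusions came from E. coli BL21-CodonPlus and were purified on Ni–NTA. They were incubated at 200 nM for 1 h at 25 °C on a custom Agilent array that had been made double-stranded with Cy5-dUTP, with 50 µM zinc acetate present, and the array was washed.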
As to “TCTTATCCACTATCCTTTCCTACGTGGTGTTCGTTTAGTGCGGAGTCACCTAGTGCAG”, the binding signal was 9210 fluorescence intensity (a.u.).
Turning to “GCACTCCTCGTTCGTCCGCCTCCAACGCTCACTCGCGCGACGGAGTCACCTAGTGCAG”, the binding signal is 12200 fluorescence intensity (a.u.).
As for “ATTCTCTAAATGTTTGACGCTGTTGACTTTTTAAAACATGCGGAGTCACCTAGTGCAG”, the binding signal is 16600 fluorescence intensity (a.u.).
Next, “TATATCACATGTTAGTACATCTTCTTATTTTTTTTATAACCGGAGTCACCTAGTGCAG”: 8100 fluorescence intensity (a.u.); “GGAGTATATTCCTACTAAGTTGTTTACTCATTCTGTTCTACGGAGTCACCTAGTGCAG”: 9650 fluorescence intensity (a.u.).
Take “CCCTTGGGTTGGAAACTCTCGCCATCGCCGTTGTCATCGTCGGAGTCACCTAGTGCAG”: the binding signal is 8770 fluorescence intensity (a.u.).
Turning to “AAATACGCACACCTTGCCACCCTCCACTTAGGGAGCGTTCCGGAGTCACCTAGTGCAG”, the binding signal is 8290 fluorescence intensity (a.u.).
As to “GTCGCGACGCCACCACTGCTCGGTTCTCTACCCCATCTCGCGGAGTCACCTAGTGCAG”, the binding signal was 10000 fluorescence intensity (a.u.).
Then “GCGTACGGTTTCCTTTTTTTTCTGTTTTTTTTCTCTCTTCCGGAGTCACCTAGTGCAG”, with 9130 fluorescence intensity (a.u.); and “GTGCGACTTCTAGGCTTTCGTTGTGTAGGTTTTGTTTCTTCGGAGTCACCTAGTGCAG”, with 11800 fluorescence intensity (a.u.); and “TCTGTCGCCTGTTCTTCTTCTTCTCACGATTTTTTTCCCCCGGAGTCACCTAGTGCAG”, with 8280 fluorescence intensity (a.u.).
Then “TCGAGGATTTTGTTCCTTGCACACATATTGATATACTGACCGGAGTCACCTAGTGCAG”, with 8720 fluorescence intensity (a.u.); and “CAATTATTCTTGTTATTTACTCATCTCATTTTCAGTGAGTCGGAGTCACCTAGTGCAG”, with 8310 fluorescence intensity (a.u.).
Then “GCTGCTCGTCTTCTCGTTCTCTCGCTCGCGCATCGTCTCTCGGAGTCACCTAGTGCAG”, with 16300 fluorescence intensity (a.u.).
Take “TAGTGTCGTATTGGAGTATTTCATAGCTATTTTTGTACCGCGGAGTCACCTAGTGCAG”: the binding signal is 8040 fluorescence intensity (a.u.).
For the sequence “GCGTTTCCGTTTTTCCTTCTACATTAGTGTGCTTACGTTTCGGAGTCACCTAGTGCAG”, the binding signal was 8850 fluorescence intensity (a.u.).
Next, “TTCCACACAACATATAATTCGTGTCTCTCTGCTTCATCACCGGAGTCACCTAGTGCAG”: 12600 fluorescence intensity (a.u.).
With “AACAGTGGTATCGTTGTGTAGGGGTGGGCTGGCAAAAAGACGGAGTCACCTAGTGCAG”, the binding signal is 20000 fluorescence intensity (a.u.).
Take “AACTCTCTGTACCTATCACAATTTTCCGCGCCTTAAAATACGGAGTCACCTAGTGCAG”: the binding signal was 9800 fluorescence intensity (a.u.).
Take “AGCCATACCCCGCACACCACGCCACGCAGATCTTTTCTCCCGGAGTCACCTAGTGCAG”: the binding signal was 8950 fluorescence intensity (a.u.).
With “CCAGATTACACCCTCACCTTTTTTTTCTCTCTTACTCTCACGGAGTCACCTAGTGCAG”, the binding signal is 9890 fluorescence intensity (a.u.).
Then “TGTTTCAGCCATCAATCCGCGTTTTGGTGTCGCGTCGAATCGGAGTCACCTAGTGCAG”, with 8360 fluorescence intensity (a.u.); and “AGGATTTTTTTTTTGTCAACGTATTTCTATTACCTGCTGTCGGAGTCACCTAGTGCAG”, with 9630 fluorescence intensity (a.u.); and “CCATTCTTGTCCAACCCACTCTCGTCATATCCCATTGCCACGGAGTCACCTAGTGCAG”, with 8800 fluorescence intensity (a.u.).
On to “CTATTTCTACTGATGATTCTTGATTTCACACTTCTCTTACCGGAGTCACCTAGTGCAG”, for which the binding signal is 8440 fluorescence intensity (a.u.).
Next, “TGGTGTGCTCTGGGTGTGTGACATTTCTCCCATTTTTAATCGGAGTCACCTAGTGCAG”: 8600 fluorescence intensity (a.u.); “AGCGCACTCCCATCTCCTCGTCTCACCTCATCTTCTCGGCCGGAGTCACCTAGTGCAG”: 8440 fluorescence intensity (a.u.); “TACCCCGCCCCTGCGCCATCGCCATCGCCATCAATCCACGCGGAGTCACCTAGTGCAG”: 9070 fluorescence intensity (a.u.).
Then “ATGCATGCACTGCTGTGGAACTGGTTTGCACTCTCTTACCCGGAGTCACCTAGTGCAG”, with 8230 fluorescence intensity (a.u.); and “TGGGCCGGCCCCTGCATTTCTGTATACTGGGCCTAGATTTCGGAGTCACCTAGTGCAG”, with 8160 fluorescence intensity (a.u.).
For the sequence “GTTGCAACCTCCCGCCTCACCCGCCGCCATTGACGACCACCGGAGTCACCTAGTGCAG”, the binding signal is 9260 fluorescence intensity (a.u.).
As for “TGTTTTTATTTAGGACCGTTTTTGTTCTTGCCATTTTTTCCGGAGTCACCTAGTGCAG”, the binding signal is 12100 fluorescence intensity (a.u.).
“CGGTGGAGGGCGGAGGGCGTCGAGCTCCGGCGGCGGAGGTCGGAGTCACCTAGTGCAG”: the binding signal is 8610 fluorescence intensity (a.u.).
Next, “GTTCCGCCGCTACAAGCTCGACCCCTTCGCGTAAACCTCTCGGAGTCACCTAGTGCAG”: 8620 fluorescence intensity (a.u.); “TTTTTTTTTCCTTTTGCTGACATGCATTATGTTTTCTATTCGGAGTCACCTAGTGCAG”: 10000 fluorescence intensity (a.u.); “CTGCTTACTCCACTCTTTCTCTGCTTTCTGGTTCATCTATCGGAGTCACCTAGTGCAG”: 11400 fluorescence intensity (a.u.).
In the case of “TCGCTCGATCTCGTAGTAGACATCGCCTACACACATATACCGGAGTCACCTAGTGCAG”, the binding signal is 8140 fluorescence intensity (a.u.).
With “GATCTGACCGGATTTTGCGGTGGGGTTTTCTTTTTTGGGTCGGAGTCACCTAGTGCAG”, the binding signal was 12200 fluorescence intensity (a.u.).
In the case of “CACCGCTCCGCCCTTTATTAAGCGCGGTGCATTTCGCGCTCGGAGTCACCTAGTGCAG”, the binding signal is 8220 fluorescence intensity (a.u.).
“GTGTGTTGGTGTTTCTTAGTCTATGTTTTCTTTATATTATCGGAGTCACCTAGTGCAG”: the binding signal was 14400 fluorescence intensity (a.u.).
Next, “AGCGAGATCCGATTGTTTATCTGTAACCCCATTTTAAACCCGGAGTCACCTAGTGCAG”: 9780 fluorescence intensity (a.u.); “GGTCCTACAGGTCAATAACTTTACCATTTTTTCCTCGTCTCGGAGTCACCTAGTGCAG”: 9210 fluorescence intensity (a.u.).
